This note sets out measurements from publication PMC12302952.

Sequences of proteins named here, by UniProt entry; tags and fusion partners are left off. A change or cut given only in a name is not applied to a line headed by its entry. A line that says so, or that is headed by a name, gives the form on record, which may keep a tag or linker. Residues count along the entry.
EYFP-STIM1 (stromal interaction molecule 1), wild type (Q13586, residues 23-685): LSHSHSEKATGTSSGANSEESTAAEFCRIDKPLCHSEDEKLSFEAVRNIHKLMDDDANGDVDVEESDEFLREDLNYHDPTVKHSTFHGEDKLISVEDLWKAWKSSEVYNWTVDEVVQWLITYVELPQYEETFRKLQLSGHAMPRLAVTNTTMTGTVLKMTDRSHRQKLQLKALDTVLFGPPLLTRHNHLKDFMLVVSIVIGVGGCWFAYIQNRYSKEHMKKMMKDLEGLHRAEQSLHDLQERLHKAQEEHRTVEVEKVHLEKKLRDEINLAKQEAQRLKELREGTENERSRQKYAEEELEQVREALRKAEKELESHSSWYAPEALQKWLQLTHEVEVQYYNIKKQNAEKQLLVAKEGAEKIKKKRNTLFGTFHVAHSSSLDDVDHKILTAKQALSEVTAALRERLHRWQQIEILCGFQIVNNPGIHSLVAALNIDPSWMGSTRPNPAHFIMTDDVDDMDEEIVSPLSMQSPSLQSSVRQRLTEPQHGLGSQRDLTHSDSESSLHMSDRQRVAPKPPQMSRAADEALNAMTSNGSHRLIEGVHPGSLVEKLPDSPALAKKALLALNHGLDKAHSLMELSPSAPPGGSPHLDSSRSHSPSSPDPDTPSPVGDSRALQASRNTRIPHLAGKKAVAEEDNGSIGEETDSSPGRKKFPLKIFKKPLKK
EYFP-STIM1 D76A (constitutively active STIM1 mutant) (Q13586, form named): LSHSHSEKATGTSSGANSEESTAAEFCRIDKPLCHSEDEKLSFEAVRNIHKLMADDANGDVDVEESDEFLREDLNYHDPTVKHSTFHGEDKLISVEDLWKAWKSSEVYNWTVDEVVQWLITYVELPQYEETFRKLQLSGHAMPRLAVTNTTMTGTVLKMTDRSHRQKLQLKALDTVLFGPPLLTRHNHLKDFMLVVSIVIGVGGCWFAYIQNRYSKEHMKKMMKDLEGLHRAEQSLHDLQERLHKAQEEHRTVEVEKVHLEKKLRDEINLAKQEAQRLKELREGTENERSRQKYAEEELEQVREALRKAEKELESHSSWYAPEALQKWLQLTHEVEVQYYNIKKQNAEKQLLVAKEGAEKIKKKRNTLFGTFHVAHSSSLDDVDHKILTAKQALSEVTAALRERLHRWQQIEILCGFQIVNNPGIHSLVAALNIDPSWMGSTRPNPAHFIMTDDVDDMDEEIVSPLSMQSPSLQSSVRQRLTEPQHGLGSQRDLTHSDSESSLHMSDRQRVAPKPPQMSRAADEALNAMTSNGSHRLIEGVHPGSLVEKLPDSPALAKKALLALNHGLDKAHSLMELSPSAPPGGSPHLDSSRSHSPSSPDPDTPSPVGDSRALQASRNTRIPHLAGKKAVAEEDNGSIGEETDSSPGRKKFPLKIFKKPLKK
UniProt Q14571: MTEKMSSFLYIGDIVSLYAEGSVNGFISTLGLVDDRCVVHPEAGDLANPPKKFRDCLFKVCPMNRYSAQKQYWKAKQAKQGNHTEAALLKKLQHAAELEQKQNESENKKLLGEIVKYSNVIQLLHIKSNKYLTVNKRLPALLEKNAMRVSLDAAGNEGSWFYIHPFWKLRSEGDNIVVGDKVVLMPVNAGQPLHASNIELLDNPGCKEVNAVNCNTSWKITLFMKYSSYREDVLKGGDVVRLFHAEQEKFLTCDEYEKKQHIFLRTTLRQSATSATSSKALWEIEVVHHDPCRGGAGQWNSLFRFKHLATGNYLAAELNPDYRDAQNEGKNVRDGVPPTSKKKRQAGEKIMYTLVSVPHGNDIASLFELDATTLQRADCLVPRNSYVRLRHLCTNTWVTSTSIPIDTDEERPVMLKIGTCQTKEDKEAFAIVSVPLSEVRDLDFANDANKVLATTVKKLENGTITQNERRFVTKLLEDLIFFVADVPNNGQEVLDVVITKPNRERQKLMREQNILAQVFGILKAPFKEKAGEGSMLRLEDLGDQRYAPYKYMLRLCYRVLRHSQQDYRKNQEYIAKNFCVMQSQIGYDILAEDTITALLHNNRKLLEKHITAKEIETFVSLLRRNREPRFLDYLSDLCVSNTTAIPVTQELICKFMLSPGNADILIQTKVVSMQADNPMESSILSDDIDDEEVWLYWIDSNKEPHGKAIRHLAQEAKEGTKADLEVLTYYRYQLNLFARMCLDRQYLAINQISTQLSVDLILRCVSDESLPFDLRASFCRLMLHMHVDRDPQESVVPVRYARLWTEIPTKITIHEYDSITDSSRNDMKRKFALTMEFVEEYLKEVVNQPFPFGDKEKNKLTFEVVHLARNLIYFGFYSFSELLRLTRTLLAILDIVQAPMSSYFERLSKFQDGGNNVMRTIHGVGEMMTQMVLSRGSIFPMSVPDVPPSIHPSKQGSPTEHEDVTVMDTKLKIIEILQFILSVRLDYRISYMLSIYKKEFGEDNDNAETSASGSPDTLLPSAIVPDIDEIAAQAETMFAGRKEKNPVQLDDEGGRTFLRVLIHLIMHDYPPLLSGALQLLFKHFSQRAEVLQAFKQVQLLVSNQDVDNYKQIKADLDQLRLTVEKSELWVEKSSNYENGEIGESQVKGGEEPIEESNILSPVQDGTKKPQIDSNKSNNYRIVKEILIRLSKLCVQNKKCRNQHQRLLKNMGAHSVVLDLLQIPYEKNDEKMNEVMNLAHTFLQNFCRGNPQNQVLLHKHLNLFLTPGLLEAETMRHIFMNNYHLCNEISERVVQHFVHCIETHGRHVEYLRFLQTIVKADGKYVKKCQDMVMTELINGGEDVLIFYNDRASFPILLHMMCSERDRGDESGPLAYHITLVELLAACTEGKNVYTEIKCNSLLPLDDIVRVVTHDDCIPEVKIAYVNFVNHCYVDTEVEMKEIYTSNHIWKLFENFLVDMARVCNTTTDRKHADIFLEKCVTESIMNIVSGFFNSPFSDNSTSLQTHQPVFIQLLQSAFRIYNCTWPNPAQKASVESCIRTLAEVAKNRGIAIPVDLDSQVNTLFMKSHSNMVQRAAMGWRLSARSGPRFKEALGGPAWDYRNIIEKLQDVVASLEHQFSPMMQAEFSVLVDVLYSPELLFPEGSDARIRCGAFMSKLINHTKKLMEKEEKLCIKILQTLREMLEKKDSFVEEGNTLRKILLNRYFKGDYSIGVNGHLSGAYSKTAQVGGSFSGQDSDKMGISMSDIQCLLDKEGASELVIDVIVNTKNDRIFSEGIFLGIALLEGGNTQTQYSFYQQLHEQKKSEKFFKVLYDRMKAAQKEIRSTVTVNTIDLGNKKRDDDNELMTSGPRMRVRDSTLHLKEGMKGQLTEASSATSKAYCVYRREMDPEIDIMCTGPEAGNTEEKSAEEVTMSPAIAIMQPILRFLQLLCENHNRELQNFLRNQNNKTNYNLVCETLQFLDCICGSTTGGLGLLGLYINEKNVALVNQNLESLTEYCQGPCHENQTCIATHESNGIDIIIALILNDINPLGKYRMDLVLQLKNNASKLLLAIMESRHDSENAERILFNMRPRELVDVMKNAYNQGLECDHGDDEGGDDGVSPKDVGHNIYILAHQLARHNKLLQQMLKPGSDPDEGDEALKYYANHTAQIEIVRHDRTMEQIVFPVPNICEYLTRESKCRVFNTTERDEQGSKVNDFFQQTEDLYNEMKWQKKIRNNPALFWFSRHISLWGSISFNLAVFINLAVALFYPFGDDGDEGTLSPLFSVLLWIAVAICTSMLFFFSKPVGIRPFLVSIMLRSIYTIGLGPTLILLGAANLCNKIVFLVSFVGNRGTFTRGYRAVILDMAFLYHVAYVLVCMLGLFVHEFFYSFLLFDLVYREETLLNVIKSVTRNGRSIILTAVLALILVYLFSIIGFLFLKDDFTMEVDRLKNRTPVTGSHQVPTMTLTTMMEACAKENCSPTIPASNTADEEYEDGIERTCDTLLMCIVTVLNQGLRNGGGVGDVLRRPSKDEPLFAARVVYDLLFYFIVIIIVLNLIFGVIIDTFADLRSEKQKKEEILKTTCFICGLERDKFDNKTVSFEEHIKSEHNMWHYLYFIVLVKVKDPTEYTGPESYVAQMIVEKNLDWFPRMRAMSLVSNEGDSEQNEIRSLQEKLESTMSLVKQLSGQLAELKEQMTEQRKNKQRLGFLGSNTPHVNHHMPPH

No constants are given. Whether binding was seen depends on the method and setting. Binding seen in cells or lysates may run through a third protein.

In assay [1] the target is EYFP-STIM1 (stromal interaction molecule 1), wild type (human) (UniProt Q13586). Description: co-IP; EYFP-STIM1 (WT or D76A) captured on anti-GFP magnetic beads (ChromoTek GFP-Trap) from lysates of transfected HEK293 S1/S2 dKO cells; lysis buffer 150 mM NaCl, 25 mM Tris-Cl pH 7.6, 10% glycerol, 1 mM EDTA, 0.5% Triton X-100; 1 h on ice; three washes; blots for IP3R-2, IP3R-3 and STIM1.

Assay [2] concerns the target EYFP-STIM1 D76A (constitutively active STIM1 mutant) (human) (UniProt Q13586). The assay is described as above.

Consider “inositol 1,4,5-trisphosphate receptor type 3 (IP3R3) (from UniProt Q14573 1-2671)”, for which the binding result in assay [1] and in assay [2] was “no binding” throughout.

On to “inositol 1,4,5-trisphosphate receptor type 2 (IP3R2) (from UniProt Q14571 1-2701)”, for which the binding result in assay [1] and in assay [2] was “no binding” throughout.
